Source: publication PMC10076223
These are yes or no findings as the source states them, for the method shown. Binding seen in cells or lysates may run through a third protein. These calls come from enrichment with a bait or labelling near it, and not all partners need be listed.

Sequences of proteins named here, by UniProt entry; tags and fusion partners are left off.
UniProt Q9ER71: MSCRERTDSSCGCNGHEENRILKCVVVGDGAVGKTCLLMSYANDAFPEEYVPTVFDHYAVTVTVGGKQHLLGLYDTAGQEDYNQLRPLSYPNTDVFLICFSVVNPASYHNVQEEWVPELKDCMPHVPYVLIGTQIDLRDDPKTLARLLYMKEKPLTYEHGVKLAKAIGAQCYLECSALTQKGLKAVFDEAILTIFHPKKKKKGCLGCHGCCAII
UniProt P26039: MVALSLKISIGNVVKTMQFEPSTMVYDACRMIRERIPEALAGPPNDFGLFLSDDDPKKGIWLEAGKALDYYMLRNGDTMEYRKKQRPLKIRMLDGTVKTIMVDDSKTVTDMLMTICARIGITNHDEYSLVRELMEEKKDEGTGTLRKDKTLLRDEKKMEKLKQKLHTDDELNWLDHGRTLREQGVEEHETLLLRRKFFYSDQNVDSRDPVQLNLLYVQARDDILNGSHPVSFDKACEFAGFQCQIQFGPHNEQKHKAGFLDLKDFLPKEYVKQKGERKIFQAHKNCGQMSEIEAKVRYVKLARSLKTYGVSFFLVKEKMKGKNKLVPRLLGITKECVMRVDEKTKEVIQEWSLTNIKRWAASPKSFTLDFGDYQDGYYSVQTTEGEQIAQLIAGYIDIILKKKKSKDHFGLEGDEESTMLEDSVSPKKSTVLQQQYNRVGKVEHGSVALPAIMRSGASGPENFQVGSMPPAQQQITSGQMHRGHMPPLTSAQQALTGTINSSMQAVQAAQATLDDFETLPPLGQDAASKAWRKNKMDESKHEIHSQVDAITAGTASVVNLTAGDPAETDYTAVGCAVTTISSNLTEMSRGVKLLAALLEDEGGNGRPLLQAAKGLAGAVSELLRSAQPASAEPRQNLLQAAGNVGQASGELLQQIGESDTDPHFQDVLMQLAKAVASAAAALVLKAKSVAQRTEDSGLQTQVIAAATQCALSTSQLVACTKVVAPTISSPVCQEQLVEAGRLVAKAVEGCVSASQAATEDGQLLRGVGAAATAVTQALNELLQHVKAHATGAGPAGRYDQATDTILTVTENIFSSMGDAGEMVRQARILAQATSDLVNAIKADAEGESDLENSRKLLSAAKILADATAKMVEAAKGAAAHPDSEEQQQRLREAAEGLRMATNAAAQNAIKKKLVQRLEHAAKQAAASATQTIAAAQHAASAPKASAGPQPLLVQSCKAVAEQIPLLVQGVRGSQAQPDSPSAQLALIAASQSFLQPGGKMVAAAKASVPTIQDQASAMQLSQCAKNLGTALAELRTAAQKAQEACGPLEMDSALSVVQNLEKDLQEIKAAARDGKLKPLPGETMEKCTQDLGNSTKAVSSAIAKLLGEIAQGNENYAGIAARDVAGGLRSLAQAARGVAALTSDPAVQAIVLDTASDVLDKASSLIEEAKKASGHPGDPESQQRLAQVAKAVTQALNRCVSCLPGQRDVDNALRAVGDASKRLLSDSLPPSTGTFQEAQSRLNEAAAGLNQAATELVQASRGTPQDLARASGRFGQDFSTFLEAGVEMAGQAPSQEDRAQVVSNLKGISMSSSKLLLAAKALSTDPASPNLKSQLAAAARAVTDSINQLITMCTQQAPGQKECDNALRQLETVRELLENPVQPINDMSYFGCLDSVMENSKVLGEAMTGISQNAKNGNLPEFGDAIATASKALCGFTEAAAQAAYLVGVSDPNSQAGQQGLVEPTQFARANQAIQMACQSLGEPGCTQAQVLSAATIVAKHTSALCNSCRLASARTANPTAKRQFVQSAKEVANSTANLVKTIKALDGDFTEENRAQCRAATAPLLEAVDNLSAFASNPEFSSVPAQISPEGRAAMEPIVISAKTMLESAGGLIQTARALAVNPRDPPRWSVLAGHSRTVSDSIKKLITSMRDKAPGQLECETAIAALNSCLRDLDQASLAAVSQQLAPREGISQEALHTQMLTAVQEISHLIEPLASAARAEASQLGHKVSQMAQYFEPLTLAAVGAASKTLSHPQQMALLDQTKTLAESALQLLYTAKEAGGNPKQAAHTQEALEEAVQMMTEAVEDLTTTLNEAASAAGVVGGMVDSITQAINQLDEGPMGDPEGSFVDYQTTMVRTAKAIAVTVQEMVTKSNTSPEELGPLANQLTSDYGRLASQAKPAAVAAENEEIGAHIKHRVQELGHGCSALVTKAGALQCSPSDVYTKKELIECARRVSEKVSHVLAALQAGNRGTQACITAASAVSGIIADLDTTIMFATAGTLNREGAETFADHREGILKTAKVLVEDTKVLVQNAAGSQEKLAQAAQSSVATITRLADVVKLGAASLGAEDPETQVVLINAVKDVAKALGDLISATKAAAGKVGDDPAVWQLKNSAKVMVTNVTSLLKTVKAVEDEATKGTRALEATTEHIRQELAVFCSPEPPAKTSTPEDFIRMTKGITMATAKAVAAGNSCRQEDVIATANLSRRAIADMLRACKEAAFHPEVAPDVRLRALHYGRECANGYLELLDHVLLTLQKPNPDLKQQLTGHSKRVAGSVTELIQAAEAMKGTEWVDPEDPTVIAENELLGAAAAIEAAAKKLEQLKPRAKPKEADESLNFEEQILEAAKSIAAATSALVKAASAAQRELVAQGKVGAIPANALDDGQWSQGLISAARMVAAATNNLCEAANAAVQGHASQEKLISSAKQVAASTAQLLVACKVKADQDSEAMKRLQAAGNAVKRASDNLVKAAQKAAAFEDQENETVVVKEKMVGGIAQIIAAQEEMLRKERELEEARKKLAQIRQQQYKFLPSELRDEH
UniProt Q80X90: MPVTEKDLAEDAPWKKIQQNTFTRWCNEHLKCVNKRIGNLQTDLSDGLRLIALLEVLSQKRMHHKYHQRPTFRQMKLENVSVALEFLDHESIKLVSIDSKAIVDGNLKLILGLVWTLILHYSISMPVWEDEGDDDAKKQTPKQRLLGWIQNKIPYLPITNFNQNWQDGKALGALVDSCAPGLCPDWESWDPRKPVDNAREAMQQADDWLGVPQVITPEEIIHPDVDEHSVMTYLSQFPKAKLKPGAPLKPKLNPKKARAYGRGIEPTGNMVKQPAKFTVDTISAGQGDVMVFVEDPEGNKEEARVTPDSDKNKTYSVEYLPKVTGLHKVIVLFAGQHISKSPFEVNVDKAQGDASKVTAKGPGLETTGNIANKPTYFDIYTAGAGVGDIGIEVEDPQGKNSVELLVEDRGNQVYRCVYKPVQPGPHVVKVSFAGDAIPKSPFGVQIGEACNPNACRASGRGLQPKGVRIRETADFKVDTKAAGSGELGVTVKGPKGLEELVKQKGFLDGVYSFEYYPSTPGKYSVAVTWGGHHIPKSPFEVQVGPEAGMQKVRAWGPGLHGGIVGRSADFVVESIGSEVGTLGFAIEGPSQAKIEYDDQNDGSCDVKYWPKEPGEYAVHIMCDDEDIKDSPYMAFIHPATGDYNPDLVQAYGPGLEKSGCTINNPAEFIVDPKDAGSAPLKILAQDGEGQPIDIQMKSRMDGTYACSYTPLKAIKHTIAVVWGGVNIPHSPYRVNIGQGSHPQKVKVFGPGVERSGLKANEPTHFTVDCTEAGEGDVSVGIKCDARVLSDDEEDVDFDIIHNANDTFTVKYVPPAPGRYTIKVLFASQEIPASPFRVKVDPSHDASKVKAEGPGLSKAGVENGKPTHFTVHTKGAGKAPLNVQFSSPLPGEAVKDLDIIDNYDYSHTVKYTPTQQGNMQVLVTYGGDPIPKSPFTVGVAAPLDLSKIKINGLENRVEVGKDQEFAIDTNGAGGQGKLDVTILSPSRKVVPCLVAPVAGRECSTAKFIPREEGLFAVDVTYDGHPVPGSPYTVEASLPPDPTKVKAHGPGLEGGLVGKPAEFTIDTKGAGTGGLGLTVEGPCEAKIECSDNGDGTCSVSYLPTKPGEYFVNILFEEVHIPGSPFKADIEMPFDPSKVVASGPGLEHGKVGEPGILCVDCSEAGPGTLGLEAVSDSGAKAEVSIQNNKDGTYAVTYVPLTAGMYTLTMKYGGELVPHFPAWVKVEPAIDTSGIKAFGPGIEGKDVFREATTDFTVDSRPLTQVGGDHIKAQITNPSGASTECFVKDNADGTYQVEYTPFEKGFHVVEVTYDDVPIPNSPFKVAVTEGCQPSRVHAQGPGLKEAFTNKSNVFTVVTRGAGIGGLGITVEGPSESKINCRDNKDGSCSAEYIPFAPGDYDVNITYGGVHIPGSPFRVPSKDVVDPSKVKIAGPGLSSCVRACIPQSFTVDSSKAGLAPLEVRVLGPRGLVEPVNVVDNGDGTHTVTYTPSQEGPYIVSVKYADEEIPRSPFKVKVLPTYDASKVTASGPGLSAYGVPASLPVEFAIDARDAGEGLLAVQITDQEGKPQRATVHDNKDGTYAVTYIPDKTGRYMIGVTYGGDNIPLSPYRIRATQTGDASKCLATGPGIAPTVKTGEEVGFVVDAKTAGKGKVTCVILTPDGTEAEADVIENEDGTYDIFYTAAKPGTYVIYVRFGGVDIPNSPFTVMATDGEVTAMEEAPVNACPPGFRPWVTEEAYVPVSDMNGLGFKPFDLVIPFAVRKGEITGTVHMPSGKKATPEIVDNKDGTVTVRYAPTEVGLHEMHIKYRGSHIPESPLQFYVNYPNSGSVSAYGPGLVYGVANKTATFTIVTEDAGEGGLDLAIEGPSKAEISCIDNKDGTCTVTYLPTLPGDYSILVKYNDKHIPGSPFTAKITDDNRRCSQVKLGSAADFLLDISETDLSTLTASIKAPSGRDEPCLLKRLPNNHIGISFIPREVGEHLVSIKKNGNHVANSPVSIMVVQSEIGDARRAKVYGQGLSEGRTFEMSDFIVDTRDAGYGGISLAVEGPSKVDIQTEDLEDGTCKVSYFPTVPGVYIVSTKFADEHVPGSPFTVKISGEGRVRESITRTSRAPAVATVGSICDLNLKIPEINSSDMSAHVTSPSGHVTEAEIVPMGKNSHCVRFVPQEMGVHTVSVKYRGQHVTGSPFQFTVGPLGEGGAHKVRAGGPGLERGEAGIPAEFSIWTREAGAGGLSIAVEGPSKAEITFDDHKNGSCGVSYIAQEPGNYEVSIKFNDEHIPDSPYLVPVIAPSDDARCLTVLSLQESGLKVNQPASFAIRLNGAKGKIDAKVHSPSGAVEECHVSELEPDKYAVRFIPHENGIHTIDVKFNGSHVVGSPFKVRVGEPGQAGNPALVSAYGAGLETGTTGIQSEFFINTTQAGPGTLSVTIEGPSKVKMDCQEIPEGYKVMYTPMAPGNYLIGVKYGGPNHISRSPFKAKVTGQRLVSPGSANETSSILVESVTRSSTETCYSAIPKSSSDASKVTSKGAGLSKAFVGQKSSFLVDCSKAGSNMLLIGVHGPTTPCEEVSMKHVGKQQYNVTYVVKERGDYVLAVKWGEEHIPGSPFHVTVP
UniProt Q91YE6: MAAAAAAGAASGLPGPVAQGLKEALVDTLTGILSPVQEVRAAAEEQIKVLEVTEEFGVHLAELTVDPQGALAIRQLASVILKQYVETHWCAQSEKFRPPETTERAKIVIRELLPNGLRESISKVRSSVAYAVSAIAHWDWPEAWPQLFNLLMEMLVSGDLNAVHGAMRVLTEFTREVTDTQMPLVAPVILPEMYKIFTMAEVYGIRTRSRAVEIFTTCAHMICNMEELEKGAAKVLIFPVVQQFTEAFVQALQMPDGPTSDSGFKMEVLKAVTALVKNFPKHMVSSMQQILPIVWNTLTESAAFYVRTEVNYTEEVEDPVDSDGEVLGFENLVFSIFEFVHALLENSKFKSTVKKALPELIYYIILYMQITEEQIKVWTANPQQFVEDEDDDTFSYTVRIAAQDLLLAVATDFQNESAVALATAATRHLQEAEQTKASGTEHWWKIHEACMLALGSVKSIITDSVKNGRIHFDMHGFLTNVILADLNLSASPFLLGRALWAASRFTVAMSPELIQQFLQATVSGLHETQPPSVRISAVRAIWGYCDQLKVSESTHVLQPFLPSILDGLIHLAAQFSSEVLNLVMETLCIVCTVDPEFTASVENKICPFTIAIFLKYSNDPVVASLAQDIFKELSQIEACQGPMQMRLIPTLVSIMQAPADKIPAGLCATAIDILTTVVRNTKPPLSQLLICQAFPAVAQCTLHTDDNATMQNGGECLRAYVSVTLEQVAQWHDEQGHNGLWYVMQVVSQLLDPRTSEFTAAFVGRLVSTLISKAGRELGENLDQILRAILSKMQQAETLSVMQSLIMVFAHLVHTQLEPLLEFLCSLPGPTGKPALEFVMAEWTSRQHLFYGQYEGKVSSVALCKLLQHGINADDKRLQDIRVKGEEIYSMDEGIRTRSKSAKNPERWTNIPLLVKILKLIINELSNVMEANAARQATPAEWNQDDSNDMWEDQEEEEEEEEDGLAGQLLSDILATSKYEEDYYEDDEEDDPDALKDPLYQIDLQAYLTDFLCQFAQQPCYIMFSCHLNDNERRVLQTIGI

Biological target: 3HA-tagged RHOJ (UniProt Q9ER71)
Test: affinity purification with mass spectrometry; anti-HA immunoprecipitation (rabbit HA tag ab9110, Dynabeads Protein G) from 1 mg lysate of EPCAM− cells expressing 3HA-tagged RHOJ versus empty vector; cells untreated (DMSO) or treated 12 h with cisplatin/5FU; lysis buffer 150 mM NaCl, 50 mM HEPES pH 7.5, 2 mM EDTA, 1% Triton X-100; on-bead trypsin digestion, LC-MS/MS, FDR <0.05 and fold change >2

| Molecule | binding |
| --- | --- |
| TLN1 (from UniProt P26039 1-2541) | binds |
| GPRC5A (receptor, UniProt Q8BHL4 1-356) MTTPTTAPSGCRSDLDSRYHRLCDLAEGWGIALETLAAVGAVATVACMFALVFLICKVQDSNKRKMLPAQFLFLLGVLGVFGLTFAFIIKLDGATGPTRFFLFGVLFAICFSCLLAHAFNLIKLVRGRKPLSWLVILSLAVGFSLVQDVIAIEYLVLTMNRTNVNVFSELPAPRRNEDFVMLLIYVLVLMVLTFFTSFLVFCGSFSGWKRHGFHICFTSFLSIAIWVAWIVLLLIPDIDRKWDDTILSTALVANGWVFLAFYILPEFRQLPRQRSPTDYPVEDAFCKPQLMKQSYGVENRAYSQEEITQGLEMGDTLYAPYSTHFQLQNHQKDFSIPRAQAPASPYNDYEGRKGDS | binds |

Second part, the molecule after the results:

| binding | Molecule |
| --- | --- |
| binds | FLNB (from UniProt Q80X90 1-2602) |
| binds | IPO9 (from UniProt Q91YE6 1-1041) |
